At least one structure is not confirmed: it was looked up by name or label, or the drawing left a doubt.
What was measured:
Assay type in all cases: cell-based, human
[1] = system: muscle fiber bundle of ALS motor unit; assay: Muscle apoptosis assay (caspase3/7-positive cells) in muscle fiber bundle of ALS motor unit; conditions: D14, compared with the condition without drugs
[2] = system: ALS motor unit (iALS-MN spheroid and iPSC-derived skeletal muscle fiber bundle); assay: Drug treatment of ALS motor unit model, muscle contraction by optical stimulation
Description: Epifluorescence and confocal images were acquired using a Zeiss Axiovert 200 microscope and an Olympus FV-1000 confocal microscope, respectively. 3D reconstruction and analysis of confocal images were performed with IMARIS software (Bitplane). Muscle contraction measurement was performed in a stage-top incubator (INUBG2TF-WSKM-SET, Tokai Hit) on Axiovert 200, and image sequences were captured using AxioVision. Automated tracking of the local deformation of the skeletal muscle cells and deflection of the pillars upon light excitation were carried out using ImageJ and Python script with an OpenCV package. Formulas for calculating muscle contraction force from pillar displacements include:
To avoid single-cell attachment to the glass bottom, the microfluidic device was incubated with 4% Pluronic F-127 (Sigma) in the incubator for 1 hour, rinsed with distilled water, and dried. Human iPSC-skeletal muscle cells were injected into the right compartment of the microfluidic device with a mixture of porcine skin type I collagen gel (Nitta Gelatin, 2.4 mg/ml) and 10% MATRIGEL® (BD Biosciences) via gel injection port no. 1 (FIGS. 1A and 1B). A 3D muscle fiber bundle was formed within 24 hours, with both sides of the muscle attached to the pillar structures. The muscle fiber bundle was then cultured and differentiated using 2% horse serum and IGF-1. After 13 days of differentiation, predifferentiated MN spheroids (normal and ALS) were injected into the left compartment (FIG. 1B) via gel injection port no. 2 with collagen without MATRIGEL®. For the cocultured MN spheroids and skeletal muscle fiber bundles in microfluidic devices, StemPro hESC medium supplemented with RA (50 μM), BDNF (10 ng/ml), and GDNF (10 ng/ml) was poured into the left medium reservoir (close to the MN spheroids), and DMEM, 10% horse serum, human recombinant IGF-1 (50 ng/ml), and 1% penicillin/streptomycin were poured into the right medium reservoir (close to the skeletal muscle fiber bundles). Two types of culture medium maintained segregating at least for 6 hours. To study the effects of drug application, bosutinib (100 μM) and rapamycin (200 nM) were applied to recover the ALS-derived motor unit muscle contraction force at day 4 with MN medium, and then muscle contraction was tested at day 7. The muscle apoptosis assay, PCR, and immunostaining of TDP-43 were performed at day 14.
hESC-derived NSCs and iPSC-derived NSCs from a patient with sporadic ALS were infected with an AAV-CAG-ChR2H134R-tdTomato-WPRE plasmid to express a mutated variant of the light-sensitive ion channel, channelrhodopsin-2H134R. AAV-CAG-hChR2H134R-tdTomato was a gift from K. Svoboda (Addgene plasmid no. 28017) (Mao et al., Neuron 72, 111-123 (2011)). Adeno-associated virus (AAV) particles were also provided by Addgene. Both types of NSCs were plated in laminin-coated six-well plates at a density of 5.0×10^5 cells per well and cultured for 2 days. The cells were then incubated for 24 hours with AAV particles containing the plasmid and maintenance culture medium. The cells were cultured for 4 days, expanded for another 3 days, and sorted by fluorescence-activated cell sorting (BD Biosciences, FACSAria II) with strong expression of tdTomato. The transfection efficiency of hESC-derived NSCs and ALS-iPSC-derived NSCs was 77 and 68%, respectively. The channelrhodopsin-2 (ChR2)-NSCs were then replated in laminin-coated six-well plates. To create neurospheres, both ChR2-NSCs were dissolved using Accutase to obtain single cells.

[3] = system: ALS motor unit with iEC layer; assay: Drug treatment via iEC layer (EC barrier), muscle contraction force of ALS motor unit; conditions: drug applied across EC barrier

SMILES: CO[C@H]1C[C@@H]2CC[C@@H](C)[C@@](O)(O2)C(=O)C(=O)N2CCCC[C@H]2C(=O)O[C@H]([C@H](C)C[C@@H]2CC[C@@H](O)[C@H](OC)C2)CC(=O)[C@H](C)/C=C(\C)[C@@H](O)[C@@H](OC)C(=O)[C@H](C)C[C@H](C)/C=C/C=C/C=C/1C [rapamycin]
- number of caspase3/7-positive cells in the muscle fiber bundle [1]: decreased
- miscommunication between MNs and muscle tissue ([2]; ALS motor unit): suppressed miscommunication between MNs and muscle tissue
- muscle contraction force (induced by MN activity) ([2]; ALS motor unit): increased muscle contraction force
- neuronal survival ([2]; ALS motor unit): improved neuronal survival
- muscle contraction force / neuroprotection ([2]; day 14, ALS motor unit): significantly prevented the reduced muscle contraction force
- efficacy of treatment across/via iEC layer (muscle contraction) [3]: did not improve muscle contraction

SMILES: COc1cc(Nc2c(C#N)cnc3cc(OCCCN4CCN(C)CC4)c(OC)cc23)c(Cl)cc1Cl [bosutinib]
- muscle contraction force (induced by MN activity) ([2]; ALS motor unit): increased muscle contraction force
- neuronal survival ([2]; ALS motor unit): improved neuronal survival
- efficacy of treatment across/via iEC layer (muscle contraction) [3]: decreased the efficiency of bosutinib

Source: patent US12398355B2, “Micro physiological model for neuronal and muscular diseases and disorders” (Massachusetts Institute of Technology, priority 2019, dated 2025)
